Experimental data reported in paper PMC10163288.
Some of the results follow.

B1: il2ra_site2_3nfp_sap_23_mot_HHH_b2_04927_af2_000000190_0001_39_52_H_._HHH_b1_06590_af2_0001_0000200026_0000001_0_0001 (protein)
chain: SSSSDIKEEYLEALKLLIERAIEEGDREAAEKLLRRAKLIAESRHDEEIREELEELEEKINSSSS
B2: il2ra_site2_3nfp_normal_mot_HHH_b1_05627_af2_000000038_0001_43_56_H_._HHH_b1_07199_af2_0001_0000600017_0000001_0 (protein)
chain: SSSSDKAEEYLRIALELLEEAIKAGDEESAKSILEVARLAAELHNDEEVEERLEELEELLSSSSS
B3: il2ra_site2_2erj_sap_20_mot_HHH_b1_01129_af2_000000281_0001_18_33_H_._5bdd4610f343b6a2bc5b56655e81a1bb_0001_1_0001_0000100005_0000001_0_0001 (protein)
chain: SSSSDEERIEELIERAEQLLEEGNPEEARELLREAAEIAFELGNFELFSRLAELALEAFELSSSS
B4: il2ra_site2_2erj_normal_mot_af86707857d369f3e1d85dcabc5f9321_0001_000000201_0001_14_29_H_._HHH_b2_01431_af2_0001_0000200019_0000001_0 (protein)
chain: SSSSEEAEELLEQAKELLEKGNPEEALKLLSRAFEIAYRLGDHELAAELQTLAHEAVKLEASSSS
B5: il2ra_site1_2b5i_normal_mot_ems_3hM_3687_af2_000000248_0001_45_64_H_._HHH_b1_00339_0001_0001500122_0000001_0_af2pred_dldesign_0_af2pred (protein)
chain: SSSSSAALAFAERAAREARRLAAAGRRREALELLEAAAKALDEEGLDEKADELYELARELSSSSS
B6: il2ra_site2_2erj_sap_22_mot_46479c6699afdbd8d5d5faf00326b0b9_0001_1_af2_000000112_0001_34_47_H_._HHH_b2_06957_af2_0001_0000500027_0000001_0_0001_af2pred_0001_af … (protein)
chain: SSSSDEYEEILKEYEKAAEELGDKKAEILLRLATEAAKKLGLSEEELRELLKHILEAIEEGSSSS
B7: il2ra_site1_2b5i_sap_9_mot_0921d739bb7547bb6fa23329820ad62a_0001_000000012_0001_54_65_H_._HHH_b2_02673_0001_0000100006_0000001_0_0001_af2pred_dldesign_0_af2pred (protein)
chain: SSSSSSDLAALEAEARRLADAGKRREALELLDAAYKAAAAAGDEEAEERLYELAKTLKSSSSSSS
B8: il2ra_site1_2b5i_normal_mot_HHH_b2_04910_000000118_0001_1_19_H_._HHH_b1_03439_af2_0001_0000300011_0000001_0 (protein)
chain: SSSSNEAERARELFREADELDKNGNPEEAEEVLEEAEEFAERGGSRSLLRMIRYALEELRGSSSS
B9: il2ra_site2_3nfp_normal_mot_HHH_b1_00660_af2_000000090_0001_40_57_H_._HHH_b1_08415_0001_0000600024_0000001_0_af2pred_0001_1_af2pred_swapped (protein)
chain: SSSSSSDVEELIEEAERLLEEGDPEEAREILRRAASLAYELGDVELFARILELLLEIHSSSSSSS
B10: il2ra_site1_3nfp_sap_25_mot_HHH_b1_02174_af2_000000144_0001_1_18_H_._HHH_b1_08546_0001_0000100002_0000001_1_0001_af2pred_0001_af2pred_swapped (protein)
chain: SSSSDVEERLKQLLEELEELARKLDLRRFLEVAKEISRLVQEHDDEEAYRLLRRILREAAGSSSS
B11: il2ra_site2_3nfp_normal_mot_HHH_b2_07498_000000057_0001_1_14_H_._HHH_b2_05183_0001_0000200013_0000001_0 (protein)
chain: SSSSDREEVEELLEEAEELLKEGNPEEAFQVVLRASKLAAKLDDPELARAVLELYELLKRSSSSS
B12: il2ra_site2_2erj_normal_mot_3b06bd03f1c6bceadc68eab912867b79_0001_000000296_0001_36_50_H_._c839b00de2d74b58ead539899b931618_0001_0001_0000400015_0000001_0_af2pr … (protein)
chain: SEVEEFLRELLEQDPRDRLVFTILSIFKWALKSGLPPEEVTKKVIEAAEAAGNPELAEELKKILK
B13: il2ra_site2_3nfp_normal_mot_HHH_b1_07556_000000077_0001_42_55_H_._HHH_b1_04552_0001_0000600035_0000001_0 (protein)
chain: SSSSSDKEELEELLELLEKAVEEGDREEFRELLRRATNLAYKLRDHEAFALLAELINWLISSSSS
B14: il2ra_site2_3nfp_sap_18_mot_HHH_b1_06589_000000230_0001_37_50_H_._6169ea741eebcbe25a7a19b2986e1e54_0001_1_0001_0000100004_0000001_0_0001_af2pred_0001_af2pred_sw … (protein)
chain: SSSSSEEEKARELLEKIEEALREGDEELFRELAEELSRLIREIGDPELFIRLAELLLEFDSSSSS
B15: il2ra_site1_3nfp_sap_14_mot_HHH_b2_01680_af2_000000278_0001_1_15_H_._HHH_b2_00992_af2_0001_0000100001_0000001_0_0001_af2pred_0001_af2pred_1 (protein)
chain: SSSSTDELRRVEELKKLAKEALEEGDDEEFREILKELRRIAEEANDPAIEWLIRLLEELFSSSSS
B16: il2ra_site1_3nfp_sap_13_mot_HHH_b2_00809_af2_000000121_0001_23_40_H_._HHH_b2_04323_af2_0001_0000400012_0000001_0_0001_af2pred_0001_af2pred_1_swapped (protein)
chain: SSSSSDSLELLEKAMKAAFNGNFEEAKRLLEELEEILEEEGDERKLKKVRKQLRIIELLQSSSSS
B17: il2ra_site1_3nfp_normal_mot_HHH_b2_03478_af2_000000120_0001_43_57_H_._HEEHE_2123_0001_0000300060_0000001_0 (protein)
chain: SEEKIVEWLARLLAKTFNVPKVEIRFENNRVTVTVEGDDELAEAALRAATKAAEQAGYSVENEIE
B18: il2ra_site1_1z92_sap_19_mot_HHH_b2_05238_af2_000000252_0001_38_55_H_._HHH_b2_07485_af2_0001_0000100002_0000001_1_0001_af2pred_0001_af2pred (protein)
chain: KIEIHIVNASPQVIRLIEDLKEIPDVEVTTENYNEYTVHVTDERIAEELEHFARRAGVDVEVRMS
B19: il2ra_site1_3nfp_normal_mot_HHH_b1_04931_000000291_0001_38_56_H_._HHH_b1_04351_0001_0000100017_0000001_0 (protein)
chain: SSSSDEEVREEVERLLEELEKARDPHEATEIVREIIRLIHELGDRELSELLQKLLQKLAKSSSSS

Molecular target: il2ra, P01589
Test: yeast display titration

Apparent Kd, inactive:
B1 no binding seen
B2 no binding seen
B3 no binding seen
B4 no binding seen
B5 no binding seen
B6 no binding seen
B7 no binding seen
B8 no binding seen
B9 no binding seen
B10 no binding seen
B11 no binding seen
B12 no binding seen
B13 no binding seen
B14 no binding seen
B15 no binding seen
B16 no binding seen
B17 no binding seen
B18 no binding seen
B19 no binding seen

As a short view, part of the list above:
Apparent Kd, inactive:
B5 no binding seen
B6 no binding seen
B7 no binding seen
B8 no binding seen
B9 no binding seen
